From US20230121313A1 (priority 2019, published 2023) come the findings set out here.

SMILES strings stand for the structures.

For the series the following is noted: sodium heparin human plasma, 25 μL sample. The method, then:
This example provides an LC-MS/MS method for the determination of ketamine and norketamine in sodium heparin human plasma using ketamine-d4 and norketamine-d4 as the respective internal standards (IS).
Retention time and peak area were determined by Analyst® Data Acquisition/Processing Software (Version 1.4.2). Analyte concentrations were obtained from a calibration curve constructed by plotting the peak area ratio versus the concentration using Watson LIMS (Version 7.3). Watson LIMS and Microsoft Office Excel were used for statistical calculations. When Office Excel was used the calculations were 100% audited. Concentrations were calculated using linear regression according to the following equation: […]
Selectivity is defined as the ability of a chromatographic method to measure a response from the analyte without interference from the biological matrix. This was accomplished by evaluating six individual lots of human plasma prepared as blank and at the lower limit of quantitation (LLOQ, 0.500 ng/mL).
The matrix effect is defined as the suppression or enhancement of ionization of analytes by the presence of matrix components in the biological samples. See, e.g., C. T. Viswanathan, “Quantitative Bioanalytical Methods Validation and Implementation: Best Practices for Chromatographic and Ligand Binding Assays,” Pharmaceutical Research, Vol. 24, No. 10, October 2007, p. 1969. […]

As to `CNC1(c2ccccc2Cl)CCCCC1=O` (racemic) [ketamine, reference compound], the “Lower limit of quantitation (LLOQ)” value was 0.500 ng/mL.

In the case of `NC1(c2ccccc2Cl)CCCCC1=O` (centres unmarked) [Norketamine], the “Lower limit of quantitation (LLOQ)” value was 0.500 ng/mL.
